According to patent publication US20100226857A1, “TUMOR CELL DIFFERENTIATION AGENTS AS CHEMICAL INHIBITORS AND TREATMENTS FOR INTRACELLULAR PARASITES” (priority 2006, published 2010):
Where two headings read alike, the source gives them in different places.

Experiments:
[1] = test system: MCF-7 human breast cancer cells; test: ESR free radical (ROS) measurement in MCF-7 cell suspensions with DMPO; assay type: cell-based; conditions: 200 nM, 1×10^6 MCF-7 cells, 5 min at 37° C.
Protocol: Free Radical Measurements: All ESR measurements were conducted using a Bruker EMIR spectrometer (Bruker Instruments Inc., Billerica, Mass.) and a flat-cell assembly. Hyperfine couplings were measured (to 0.1 G) directly from magnetic field separation using potassium tetraperoxochromate (K3CrO8) and 1,1-diphenyl-2-picrylhydrazyl as reference standards. The relative radical concentration was estimated by multiplying half of the peak height by (ΔHpp)^2, where (ΔHpp) represents peak-to-peak width. The Acquisit program was used for data acquisitions and analyses. MCF-7 cells (2.0×10^6 cells/60-mm^2 dish) were harvested 48 h after plating by trypsinization and collected at room temperature by centnfugation (225 g, 5 min). Cells were washed once with ice-cold PBS and resuspended in ice-cold PBS at 2×10^6 cells/ml. Radical production was measured in the presence of the spin trap 5,5-dimethyl-1-pyrroline-N-oxide (DMPO; Aldrich Chemical Co., Milwaukee, Wis.). DMPO (200 mM) and 1×10^6 cells test agents were mixed in 1.0 ml of PBS, incubated at 37° C. for 5 mm, and then transferred to a flat cell for ESR measurements.

[2] = test system: T. gondii; test: Plaque suppression / protection of HS68 monolayer from T. gondii; assay type: cell-based, Toxoplasma gondii; conditions: MIC plaque suppression relative to IC50 tachyzoite count
Protocol: Proliferation assays: HS68 cells were replica plated in 48-well dishes, and grown to confluence prior to infection with 5-10×10^4 freshly purified T. gondii tachyzoites/well. After 2 hours, the media and non-infective tachyzoites were removed, and replaced with RPMI medium containing 2% fetal bovine serum plus 1 mM sodium pyruvate, penicillin (100 U), streptomycin (100 U) and test agent or a vehicle control. The proliferation assays were terminated 48-72 hours post-infection when the untreated cells were heavily infected. All of the culture media were removed from the wells, and the tachyzoites in the media were fixed by dilution (1:1) into phosphate-buffered saline containing 10% formaldehyde. The tachyzoites were collected by brief centrifugation (30 seconds, […]) at room temperature using a tabletop microfuge. The tachyzoites were resuspended in 100 ul of phosphate-buffered saline, and duplicate aliquots were counted using a hemocytometer. IC50 values, the concentrations of inhibitors necessary to decrease the number of tachyzoites in the medium by 50%, were determined for each experiment using Prism GraphPad version 4.0 to fit the concentration-response data to a sigmoidal curve. […] The minimum inhibitory concentration (MIC) of compounds that suppressed Toxoplasma-induced lysis of the HS68 cells was determined visually by counting the number of plaques/well in the monolayer.

[3] = test system: T. gondii tachyzoites; test: T. gondii tachyzoite proliferation assay in HS68 cells (tachyzoite count); assay type: cell-based; conditions: Toxoplasma gondii
Protocol: Parasite propagation—The RH strain of Toxoplasma gondii was grown in BM bovine macrophage cells or HS68 human foreskin fibroblast cells obtained from the American Type Culture Collection (Rockville, Md.). HS68 cells were grown in RPMI 1640 medium (Mediatech, Inc., Herndon, Va.) plus 10% fetal bovine serum (Atlanta Biologicals, Lawrenceville, Ga.), 1 mM sodium pyruvate and 100 U/ml each of penicillin and streptomycin. Parasites were harvested from infected cultures of HS68 cells growing in T-75 cm^2 flasks. After removing the culture medium, the cells were scraped into 5 ml of phosphate-buffered saline and a cell lysate obtained by passing through a 26-gauge needle. To purify the parasites, the cell lysate was filtered through a 3 micron (micrometer) filter.
Proliferation assays: HS68 cells were replica plated in 48-well dishes, and grown to confluence prior to infection with 5-10×10^4 freshly purified T. gondii tachyzoites/well. […] The tachyzoites were resuspended in 100 ul of phosphate-buffered saline, and duplicate aliquots were counted using a hemocytometer. […] The minimum inhibitory concentration (MIC) of compounds that suppressed Toxoplasma-induced lysis of the HS68 cells was determined visually by counting the number of plaques/well in the monolayer.

O=C(CCCCCCC(=O)Nc1ccccc1)NO [SAHA, suberoylanilide hydroxamic acid]
relative peak heights of the ESR signals (mean±range, n=2) [1]: 98 mm | MIC IC50 (ratio MIC/IC50) [2]: 4.8 | IC50 ([3]; RH strain T. gondii in HS68 cells, 48-well plate, 48-72 hours post-infection, mean+/-SEM, read-out: IC50 (uM) Tachyzoite Count): 0.083 ± 0.04 µM | IC50 ([3]; RH strain in HS68 cells, average of independent experiments, read-out: IC50 T. gondii tachyzoites): 0.083 µM
